Data source: PubChem BioAssay AID1259272 (Sanger Institute, 2017)

- Assay: 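Kinome-wide siRNA search for genes whose silencing boosts targeted drug effects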 (primary screen)
- Cell system: SW1116 human colorectal cancer cells
- Reagents: siRNA pool against human genes
- Challenge: anchor drugs BYL719 (1 µM), cetuximab (5 µg/ml) or trametinib (10 nM), or DMSO vehicle; exposure length not given
- Detection: 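Replicate-averaged viability versus control-pool wells, with a robust z-score for siRNA alone and a per-drug synergy score (BYL719, cetuximab, trametinib)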
- Scale: viability z-score, no drug: higher = more cells remaining; strongly negative means essential gene; viability, no drug: higher = more viable cells; synergy score with BYL719 and synergy score with cetuximab and synergy score with trametinib: higher = stronger synthetic-lethal synergy with the drug
- Call rule: 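Called essential if the drug-free knock-down gives a robust viability z-score below -3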
- Calls: active = essential (knock-down alone); inactive = no change
This is a random part of 794 reagents tested. Over the whole deposit, 7 (0.88%) were called active. 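Essential calls reflect knock-down without drug only, not synergy with drugs; drug exposure length not given.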 A number with no mark means an inactive call. Viability is capped at 1. The record does not give: the amount of reagent, the time to read-out.

The opening 5 entries as a preview:
no.	target	PubChem SID	viability z-score, no drug	viability, no drug (fraction of control)	synergy score with BYL719	synergy score with cetuximab	synergy score with trametinib
1	DAPK3 (GeneID 1613)	SID56478935	-2.64	0.63	-0.211	-0.188	0.0101
2	STYK1 (GeneID 55359)	SID56478493	-1.15	0.788	-0.0972	-0.105	0.106
3	FASTK (GeneID 10922)	SID56479004	0.842	1	-0.0788	-0.0704	-0.288
4	WNK4 (GeneID 65266)	SID56478961	-0.303	0.878	-0.191	-0.027	-0.0881
5	EPHB1 (GeneID 2047)	SID152152600	-1.56	0.744	-0.0319	-0.0943	0.0248

Main list, from the first entry:
no.	target	PubChem SID	viability z-score, no drug	viability, no drug (fraction of control)	synergy score with BYL719	synergy score with cetuximab	synergy score with trametinib
1	DAPK3 (GeneID 1613)	SID56478935	-2.64	0.63	-0.211	-0.188	0.0101
2	STYK1 (GeneID 55359)	SID56478493	-1.15	0.788	-0.0972	-0.105	0.106
3	FASTK (GeneID 10922)	SID56479004	0.842	1	-0.0788	-0.0704	-0.288
4	WNK4 (GeneID 65266)	SID56478961	-0.303	0.878	-0.191	-0.027	-0.0881
5	EPHB1 (GeneID 2047)	SID152152600	-1.56	0.744	-0.0319	-0.0943	0.0248
6	BRSK2 (GeneID 9024)	SID152155603	0.842	1	-0.0723	-0.0725	-0.236
7	NME7 (GeneID 29922)	SID56479121	0.842	1	-0.0788	0.0413	0.0321
8	CALM2 (GeneID 805)	SID134320655	-0.533	0.854	-0.0825	0.0753	0.157
9	TP53RK (GeneID 112858)	SID135620611	-0.405	0.867	-0.147	-0.0837	0.0726
10	PRKACB (GeneID 5567)	SID56478825	0.842	1	0.0235	-0.0717	-0.0314
11	STK36 (GeneID 27148)	SID135620924	-1.3	0.771	-0.289	-0.0469	0.0157
12	ZC3H11A (GeneID 9877)	SID135624155	-0.123	0.897	-0.0594	-0.027	-0.0511
13	BMX (GeneID 660)	SID152147462	0.321	0.945	-0.13	-0.012	-0.0519
14	STK11 (GeneID 6794)	SID152153881	-0.438	0.864	-0.114	-0.129	0.196
15	NUP62 (GeneID 23636)	SID135622326	0.842	1	-0.0639	-0.0757	0.126
16	MYLK2 (GeneID 85366)	SID56479029	-0.481	0.859	-0.102	0.0998	0.081
17	BPTF (GeneID 2186)	SID152156181	-0.763	0.829	-0.134	-0.06	0.114
18	CDK4 (GeneID 1019)	SID56478598	0.842	1	0.0762	-0.0757	0.00925
19	DCLK2 (GeneID 166614)	SID152154613	-0.12	0.898	-0.0249	-0.153	-0.0521
20	CDK13 (GeneID 8621)	SID152148828	0.449	0.958	-0.0468	-0.00251	-0.107
21	RBM10 (GeneID 8241)	SID134313901	-0.905	0.814	-0.188	0.02	0.0143
22	DMPK (GeneID 1760)	SID135620855	0.842	1	-0.0788	-0.027	0.0129
23	IP6K2 (GeneID 51447)	SID56479106	-0.21	0.888	0.0221	-0.0608	0.116
24	AXIN2 (GeneID 8313)	SID135621652	0.842	1	0.0822	-0.0251	0.101
25	MASTL (GeneID 84930)	SID56478754	-0.654	0.841	-0.0272	0.0871	0.0258
26	STK40 (GeneID 83931)	SID56479025	-0.505	0.857	-0.109	-0.123	-0.1
27	CDKN2B (GeneID 1030)	SID135620642	0.842	1	-0.0624	-0.0422	-0.156
28	BCKDK (GeneID 10295)	SID135620909	-0.477	0.859	0.0716	0.0224	0.106
29	RPS6KA2 (GeneID 6196)	SID135620862	-0.999	0.804	0.0017	0.0772	0.0126
30	DGKB (GeneID 1607)	SID56479090	-1.68	0.732	-0.0293	-0.0421	0.11
31	SYNCRIP (GeneID 10492)	SID134320219	-1.03	0.801	-0.0818	-0.146	0.00948
32	AK1 (GeneID 203)	SID152147390	0.842	1	-0.0788	-0.00131	0.143
33	CAMK2B (GeneID 816)	SID135620913	0.842	1	-0.0788	-0.0234	-0.0629
34	PKLR (GeneID 5313)	SID152148534	0.582	0.972	-0.0567	-0.101	0.0657
35	TJP2 (GeneID 9414)	SID135621862	0.842	1	-0.00429	0.082	0.136
36	PAPSS2 (GeneID 9060)	SID152148635	0.232	0.935	-0.097	-0.0653	0.0533
37	PRKCG (GeneID 5582)	SID56478828	-0.353	0.873	-0.129	-0.106	0.116
38	ERBB4 (GeneID 2066)	SID135620618	0.842	1	-0.0788	0.0701	0.122
39	CEP290 (GeneID 80184)	SID152154792	0.842	1	-0.0788	-0.0195	0.0691
40	CDKL4 (GeneID 344387)	SID135624323	-1.62	0.737	-0.133	-0.00741	0.0873
41	BCOR (GeneID 54880)	SID135620845	0.842	1	0.147	0.128	0.141
42	DYRK1A (GeneID 1859)	SID135620889	-0.919	0.812	-0.125	-0.154	0.0502
43	NEK8 (GeneID 284086)	SID56478901	-2.51	0.643	-0.0791	-0.086	0.0134
44	CAMK2A (GeneID 815)	SID56478931	-0.425	0.865	-0.0205	-0.16	-0.0314
45	TRIB3 (GeneID 57761)	SID56478723	-0.873	0.817	-0.0913	0.0321	-0.0703
46	ZAP70 (GeneID 7535)	SID56479064	-1.05	0.798	-0.17	-0.0376	0.0645
47	CAMKV (GeneID 79012)	SID135620973	-0.255	0.883	-0.0226	-0.049	0.0967
48	EPHA8 (GeneID 2046)	SID135620615	0.363	0.949	-0.0422	-0.0724	-0.119
49	WEE1 (GeneID 7465)	SID152152823	-2.68	0.625	-0.0148	-0.00097	0.0448
50	STK38 (GeneID 11329)	SID152149792	-0.116	0.898	0.0302	0.00892	0.0379
51	MAGI2 (GeneID 9863)	SID135622325	0.145	0.926	-0.132	-0.0954	0.0585
52	TAOK2 (GeneID 9344)	SID57288958	0.406	0.954	-0.122	-0.118	-0.0304
53	MAP4K3 (GeneID 8491)	SID135620707	-1.5	0.751	-0.126	-0.177	-0.0673
54	FBXW7 (GeneID 55294)	SID152153107	0.842	1	-0.0788	0.0619	0.148
55	EPHB4 (GeneID 2050)	SID152156322	-0.283	0.88	-0.157	-0.0546	-0.151
56	AAK1 (GeneID 22848)	SID152151067	-0.0431	0.906	-0.0661	-0.0785	0.101
57	IKBKE (GeneID 9641)	SID56478721	0.842	1	-0.0788	-0.0732	0.0752
58	PAK3 (GeneID 5063)	SID56478716	-0.592	0.847	-0.0511	-0.00727	0.0321
59	MAPKAPK2 (GeneID 9261)	SID56478668	-1.84	0.715	-0.112	-0.238	-0.0205
60	NPR2 (GeneID 4882)	SID152151652	0.842	1	-0.00654	-0.0757	-0.0465
61	HIPK3 (GeneID 10114)	SID152151658	0.801	0.996	-0.0509	0.0768	-0.025
62	FER (GeneID 2241)	SID152156672	0.842	1	-0.0788	0.0706	-0.122
63	MOS (GeneID 4342)	SID56478732	0.0112	0.912	0.0687	0.0617	0.129
